Results published in paper PMC6005845 (Frontiers in Cardiovascular Medicine, 2018).

Tested on: liver
Assay: Liver gene expression analysis (RNA sequencing) and pathway analysis
Assay type: in vivo, APOE*3Leiden.CETP mice
Settings: Bayes p < 0.01
Description: To find early molecular signatures of other clinically relevant processes induced by the anti-CML drugs, gene expression and pathway analysis was performed in the liver as the central organ in lipid metabolism and synthesis of coagulation factors. To identify drug-specific molecular responses and overlap between the various treatments, the total number of differentially expressed genes (DEG) was assessed and a Venn-diagram was constructed comprising all DEG compared to control group. […]
Messenger RNA was isolated from liver of 8 mice per group, using the NEBNext Ultra RNA
sample Prep Kit. After fragmentation of the mRNA, cDNA synthesis was performed. The

| SMILES | Number of differentially expressed genes versus control group (150 mg/kg BID) | Number of differentially expressed genes versus control group (10 mg/kg QD) | Number of differentially expressed genes versus control group (30 mg/kg QD) | Number of differentially expressed genes versus control group (3 mg/kg QD) |
| --- | --- | --- | --- | --- |
| Cc1ccc(NC(=O)c2ccc(CN3CCN(C)CC3)cc2)cc1Nc1nccc(-c2cccnc2)n1 [Imatinib, imatinib] | 1575 | – | – | – |
| Cc1cn(-c2cc(NC(=O)c3ccc(C)c(Nc4nccc(-c5cccnc5)n4)c3)cc(C(F)(F)F)c2)cn1 [Nilotinib, nilotinib] | – | 474 | 1066 | – |
| Cc1ccc(C(=O)Nc2ccc(CN3CCN(C)CC3)c(C(F)(F)F)c2)cc1C#Cc1cnc2cccnn12 [Ponatinib, ponatinib] | – | 1344 | – | 504 |
